{
  "sequences": {"note": "The chains behind the UniProt entries cited, without tags or fusion partners. Where a name states a change or a piece, a line headed by the entry shows the natural chain unless it says otherwise.", "UniProt Q15286": "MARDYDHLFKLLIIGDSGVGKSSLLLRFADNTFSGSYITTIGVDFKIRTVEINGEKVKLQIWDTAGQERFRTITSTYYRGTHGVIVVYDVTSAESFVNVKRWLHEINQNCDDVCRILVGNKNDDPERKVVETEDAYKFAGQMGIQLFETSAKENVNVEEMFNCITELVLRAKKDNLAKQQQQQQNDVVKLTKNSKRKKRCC"},
  "source": "paper PMC5996148",
  "assay_in_all_cases": "protein microarray (ProtoArray v5.0), streptavidin-Alexa Fluor 647",
  "conditions_in_all_cases": "3'-biotin; 20 mM Tris (pH 7.5), 5 mM MgCl2, 100 mM KCl, 0.1% Tween-20, A/T-rich and random oligonucleotide blockers; temperature not stated; high values mean tight binding",
  "key": {"[1]": {"test_system": "Pyrroline-5-carboxylate reductase 1, mitochondrial (human)"}, "[2]": {"test_system": "Pyruvate kinase isozymes R/L (human)"}, "RAB1B (human)": {"test_system": "RAB1B (human)"}, "RAB27A (human)": {"test_system": "RAB27A (human)"}, "RAB33B (human)": {"test_system": "RAB33B (human)"}, "RAB35": {"molecular_target": "RAB35 (UniProt Q15286)"}, "RAB3B (human)": {"test_system": "RAB3B (human)"}, "RAB3IL1 (human)": {"test_system": "RAB3IL1 (human)"}, "RAB4A (human)": {"test_system": "RAB4A (human)"}, "RAB9A": {"molecular_target": "T1, RAB9A (UniProt P51151)", "T1 sequence": "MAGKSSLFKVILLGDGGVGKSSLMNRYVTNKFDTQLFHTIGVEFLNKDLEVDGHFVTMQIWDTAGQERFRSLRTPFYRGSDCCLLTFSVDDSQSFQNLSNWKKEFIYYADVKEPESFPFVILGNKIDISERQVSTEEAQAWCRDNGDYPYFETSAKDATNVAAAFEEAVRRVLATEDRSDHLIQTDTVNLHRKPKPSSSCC"}, "RABEP2 (human)": {"test_system": "RABEP2 (human)"}, "RABEPK (human)": {"test_system": "RABEPK (human)"}, "RABL2B (human)": {"test_system": "RABL2B (human)"}, "RABL5 (human)": {"test_system": "RABL5 (human)"}, "RAD51AP1": {"molecular_target": "T2, RAD51AP1 (UniProt Q96B01)", "T2 sequence": "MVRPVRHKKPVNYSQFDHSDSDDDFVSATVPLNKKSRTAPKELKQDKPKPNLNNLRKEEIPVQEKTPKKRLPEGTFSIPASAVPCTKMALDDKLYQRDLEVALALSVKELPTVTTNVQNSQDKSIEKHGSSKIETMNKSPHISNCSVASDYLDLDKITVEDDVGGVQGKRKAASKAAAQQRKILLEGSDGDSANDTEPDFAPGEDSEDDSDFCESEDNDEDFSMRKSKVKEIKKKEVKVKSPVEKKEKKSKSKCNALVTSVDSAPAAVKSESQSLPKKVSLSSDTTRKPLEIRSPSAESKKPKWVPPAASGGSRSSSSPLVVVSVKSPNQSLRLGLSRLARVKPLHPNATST"}, "RANGAP1 (human)": {"test_system": "RANGAP1 (human)"}, "RAP1GDS1 (human)": {"test_system": "RAP1GDS1 (human)"}, "RASA1": {"molecular_target": "T3, RASA1 (UniProt P20936)", "T3 sequence": "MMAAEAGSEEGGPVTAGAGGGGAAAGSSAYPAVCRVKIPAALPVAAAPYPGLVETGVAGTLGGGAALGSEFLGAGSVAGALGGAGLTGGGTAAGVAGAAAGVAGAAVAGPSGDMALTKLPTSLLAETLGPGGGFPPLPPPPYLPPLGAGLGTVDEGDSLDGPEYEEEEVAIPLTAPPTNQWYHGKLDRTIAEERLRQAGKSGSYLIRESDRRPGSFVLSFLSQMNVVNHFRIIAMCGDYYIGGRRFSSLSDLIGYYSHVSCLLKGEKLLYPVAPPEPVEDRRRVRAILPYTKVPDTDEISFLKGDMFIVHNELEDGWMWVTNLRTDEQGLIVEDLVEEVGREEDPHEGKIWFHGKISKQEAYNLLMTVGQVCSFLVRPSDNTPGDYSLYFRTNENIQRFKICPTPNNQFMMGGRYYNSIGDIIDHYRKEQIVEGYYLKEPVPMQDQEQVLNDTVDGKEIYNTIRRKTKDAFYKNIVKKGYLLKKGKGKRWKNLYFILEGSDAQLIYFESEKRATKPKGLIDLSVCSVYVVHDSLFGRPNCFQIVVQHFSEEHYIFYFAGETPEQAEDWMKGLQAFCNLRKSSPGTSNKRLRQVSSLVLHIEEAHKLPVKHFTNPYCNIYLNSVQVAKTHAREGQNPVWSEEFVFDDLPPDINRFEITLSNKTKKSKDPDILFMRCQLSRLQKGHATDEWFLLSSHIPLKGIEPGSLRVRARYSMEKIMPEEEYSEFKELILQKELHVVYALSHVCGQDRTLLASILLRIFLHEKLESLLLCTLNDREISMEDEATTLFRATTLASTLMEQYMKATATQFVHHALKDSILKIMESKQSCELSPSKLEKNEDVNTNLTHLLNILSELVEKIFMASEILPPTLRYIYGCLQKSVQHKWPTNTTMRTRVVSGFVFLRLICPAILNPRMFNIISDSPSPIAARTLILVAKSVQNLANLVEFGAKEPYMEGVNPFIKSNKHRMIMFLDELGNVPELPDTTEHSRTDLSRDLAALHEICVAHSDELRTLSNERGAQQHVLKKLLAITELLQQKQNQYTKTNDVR"}, "RASGRP3 (human)": {"test_system": "RASGRP3 (human)"}, "RBED1": {"molecular_target": "T4, RBED1 (UniProt Q96FG2)", "T4 sequence": "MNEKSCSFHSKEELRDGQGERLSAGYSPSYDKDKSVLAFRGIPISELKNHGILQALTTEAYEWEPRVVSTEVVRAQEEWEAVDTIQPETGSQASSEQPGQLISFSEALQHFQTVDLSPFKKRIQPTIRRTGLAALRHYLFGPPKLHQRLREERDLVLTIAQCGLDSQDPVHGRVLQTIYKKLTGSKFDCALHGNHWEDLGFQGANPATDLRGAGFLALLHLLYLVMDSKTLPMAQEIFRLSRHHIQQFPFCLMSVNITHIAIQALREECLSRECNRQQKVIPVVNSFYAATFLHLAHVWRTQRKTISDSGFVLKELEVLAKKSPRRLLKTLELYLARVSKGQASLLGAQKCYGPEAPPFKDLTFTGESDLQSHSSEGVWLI"}},
  "note": "“And” between values parts separate entries of the source, which are not always exact repeats. Equal values may be shown once. This is one part of the list. For some assays here: The exact form of the protein is not confirmed.",
  "data": [
    {"sequence": "GGGGACAGGGGTATGGGGAGGGG [G4-3 biotinylated (CtG)]", "values": [
      {"measurement": "binding signal", "setting": "[1]", "result": -0.33, "unit": "z-score"},
      {"measurement": "binding signal", "setting": "[2]", "result": -0.323, "unit": "z-score"},
      {"measurement": "binding signal", "setting": "RAB1B (human)", "result": -0.33, "unit": "z-score"},
      {"measurement": "binding signal", "setting": "RAB27A (human)", "result": -0.337, "unit": "z-score"},
      {"measurement": "binding signal", "setting": "RAB33B (human)", "result": -0.327, "unit": "z-score"},
      {"measurement": "binding signal", "setting": "RAB35", "result": 5.81, "unit": "z-score"},
      {"measurement": "binding signal", "setting": "RAB3B (human)", "result": -0.328, "unit": "z-score"},
      {"measurement": "binding signal", "setting": "RAB3IL1 (human)", "result": -0.302, "unit": "z-score"},
      {"measurement": "binding signal", "setting": "RAB4A (human)", "result": -0.306, "unit": "z-score"},
      {"measurement": "binding signal", "setting": "RAB9A", "result": -0.321, "unit": "z-score"},
      {"measurement": "binding signal", "setting": "RABEP2 (human)", "result": -0.3, "unit": "z-score"},
      {"measurement": "binding signal", "setting": "RABEPK (human)", "result": -0.302, "unit": "z-score"},
      {"measurement": "binding signal", "setting": "RABL2B (human)", "result": -0.313, "unit": "z-score"},
      {"measurement": "binding signal", "setting": "RABL5 (human)", "result": "-0.324 z-score and -0.333 z-score"},
      {"measurement": "binding signal", "setting": "RAD51AP1", "result": 4.69, "unit": "z-score"},
      {"measurement": "binding signal", "setting": "RANGAP1 (human)", "result": -0.319, "unit": "z-score"},
      {"measurement": "binding signal", "setting": "RAP1GDS1 (human)", "result": "-0.328 z-score and -0.344 z-score and -0.336 z-score"},
      {"measurement": "binding signal", "setting": "RASA1", "result": 3.2, "unit": "z-score"},
      {"measurement": "binding signal", "setting": "RASGRP3 (human)", "result": -0.323, "unit": "z-score"},
      {"measurement": "binding signal", "setting": "RBED1", "result": -0.315, "unit": "z-score"}
    ]}
  ]
}
